These are yes or no findings as the source states them, for the method shown. In cells and extracts the contact can be indirect. A yes stands for co-enrichment or nearness to the bait. Other partners may have been found.
Target: Minibrain (Mnb), endogenously tagged Mnb-tRFP (Drosophila melanogaster (endogenous in embryos)) (UniProt P49657)
Experiment: affinity purification with mass spectrometry

Amino acid sequences for entries named in this document (tags omitted).
UniProt P49657: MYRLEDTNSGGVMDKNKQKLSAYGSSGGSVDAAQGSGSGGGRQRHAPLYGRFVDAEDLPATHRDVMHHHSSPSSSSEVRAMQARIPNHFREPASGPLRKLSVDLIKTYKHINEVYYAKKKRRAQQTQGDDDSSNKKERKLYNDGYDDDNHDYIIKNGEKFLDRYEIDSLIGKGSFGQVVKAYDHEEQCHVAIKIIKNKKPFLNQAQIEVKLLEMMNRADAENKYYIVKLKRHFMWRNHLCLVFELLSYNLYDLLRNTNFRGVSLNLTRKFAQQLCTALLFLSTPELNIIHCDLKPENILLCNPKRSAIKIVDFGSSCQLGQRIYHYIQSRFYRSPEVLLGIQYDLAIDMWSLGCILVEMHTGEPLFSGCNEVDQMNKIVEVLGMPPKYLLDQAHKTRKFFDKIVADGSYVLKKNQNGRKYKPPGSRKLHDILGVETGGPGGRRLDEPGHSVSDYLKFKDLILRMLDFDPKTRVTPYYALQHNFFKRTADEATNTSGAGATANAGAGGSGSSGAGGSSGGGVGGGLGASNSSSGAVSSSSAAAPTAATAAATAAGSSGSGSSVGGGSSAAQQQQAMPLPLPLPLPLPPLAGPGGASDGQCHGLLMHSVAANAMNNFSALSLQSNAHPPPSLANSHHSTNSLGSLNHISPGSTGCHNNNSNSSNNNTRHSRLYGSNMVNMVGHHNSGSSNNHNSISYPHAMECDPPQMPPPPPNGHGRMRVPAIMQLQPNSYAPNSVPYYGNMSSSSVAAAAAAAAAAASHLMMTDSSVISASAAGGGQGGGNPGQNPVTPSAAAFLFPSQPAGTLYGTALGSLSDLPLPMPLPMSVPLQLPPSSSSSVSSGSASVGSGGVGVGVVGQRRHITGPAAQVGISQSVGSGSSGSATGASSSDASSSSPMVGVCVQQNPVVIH

binding: binds
B1: Ral interacting protein (Rlip), endogenous (protein, UniProt Q9VDG2 1-625)
chain: MDFDSPEEKEFPGLYASEAADAKSRKSKEESDFSEDHDHSKKDLLIGRRKDKKEKGKDRGYAALEGESSPEEELDTKSPSKSKKSKTFKFTSSKSKEKREKSRDKSEKDSKHAEEEPSVSHKVKEKERDKEKDRDEPKKKDKEEKRKEKDKKADKKDKKDKKSKQLSQQQDDVSAAEEVLALGYPVFGVSVSLATERSRCHDGVDIPLVVRDCIDFLQDHLKCEQIYKIEPIKTRLMHFKRLYNNREHDSAVDELNLPTACSLLKLFLRELPEPLLTTDLVARFEEVASHPKVTTQQAELQQLLEQLPKCNRTLLAWVLLHFDAVIQQERHNKLNAQSLAMLLSPTLQMSHRLMVALLCHCNNLFADVQLIKYVPPLTSTSPKLPDTPEDIQTELRKQDSLLSQIHSEMNAGFITKKREEQLWEVQRIITQLKRKLRTFEKKQEKTAEEVDNSSSAPPAVASEDTTDSKPAGTPAVSTNNSISQEEPKTDTLTPKDAPNDFTIDPSTGFILLPKSNPHRENLLRLQIEYDELMEWQNELKARIVAERNEVYRLKQLYEQQSINSQMASLASGSQAPPESDYERIIEHYTRENALLEHKKNMLGMELKEERRACIALQVELRLQQF
